Experimental data: PubChem BioAssay (NCATS)
Inconclusive means that the source gave no clear call. Such entries were picked first, then a sample of the others. Potencies of inconclusive entries are doubtful fits and often do not repeat. Activity calls are given as the source filed them. The call rests on the fitted dose curve; in most records, active means well fitted cell-killing curve with a large enough effect; inconclusive means small, poorly fitted or top-dose-only effect, or effect the other way; inactive means flat fitted curve, though single readings scatter.
On the % scale 0 is the no-effect control and ±100 the full control effect; potency means the concentration at half of the fitted maximal effect.

Experiment: Cell viability qHTS assay in S16 Pmp22-F2sN cells - Confirmatory screen (AID 1508641)
Conditions: S16 Schwann cells viability, CellTiter-Glo ATP luminescence, 24 h; activity change, negative = viability loss: at 57.5 µM (top of the series)
Outline: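 CellTiter-Glo luminescence, read after 15 min at room temperature, measured viability. Before that, S16 Pmp22-F2sN cells (500-1,000 per well, DMEM plus 10% FBS) were exposed to compounds for 24 h at 37C.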
In the case of COc1ccc(Nc2c3c(nc4ccc(NC(=O)c5cc(Cl)ccc5OC)cc24)CCCC3)cc1OC, the Potency is reported as active: 13.7 µM.
For Cc1c(Cl)cccc1NC(=O)c1oc2ccc(S(=O)(=O)N3CCC4(CC3)OCCO4)cc2c1C, the Potency was “inactive”.
For Cc1ccc(C)c(N2CCN(CCCNC(=O)Cn3c(-c4cccs4)cc4ccccc43)CC2)c1, the Potency was inconclusive: 43.2 µM [cytotoxic, single point].
For CCc1ccc(CNC(=O)c2nn(-c3ccc(C)cc3)c(=O)c3c2c2ccccc2n3C)cc1, the Potency was inconclusive: 48.5 µM [cytotoxic, single point].
In the case of CCc1ccc(C2CC(=O)c3c([nH]c(C(=O)OCc4ccc(C)cc4)c3C)C2)cc1 (stereo not given), the Potency is reported as inconclusive: 27.3 µM [cytotoxic, partial curve].
For CCS(=O)(=O)c1ncc(Cl)c(C(=O)NCc2ccccc2)n1, the Potency was active: 15.3 µM.
With Cc1cc(C)cc(Nc2cc(C(=O)NCCCN(C)C3CCCCC3)c3ccccc3n2)c1 the Potency was active: 17.2 µM.
In the case of COc1ccc(-n2c(=O)c3c(c4cc(OC)ccc4n3C)n(CCC(C)C)c2=O)cc1, the Potency is reported as “inactive”.
In the case of CC1=Nc2cc(C(=O)NCCc3ccccc3)ccc2Sc2c(C)ccc(C)c21, the Potency is reported as inconclusive: 0.0153 µM [rising, full curve, poor fit].
In the case of COCCCNC(=O)c1ccc(-n2c(-c3ccccc3)cc3c2CCC(C)C3)cc1 (stereo not given), the Potency is reported as inconclusive: 0.611 µM [rising, partial curve, poor fit].
In the case of COC(=O)c1c(-c2ccc(Cl)cc2)noc1N1CCN(c2ccc(C)cc2C)CC1, the Potency is reported as inconclusive: 48.5 µM [cytotoxic, single point].
With O=C(CCn1cnnn1)Nc1cc(C(F)(F)F)cc(C(F)(F)F)c1 the Potency was “inactive”.
In the case of COc1ccc(CCNc2ncnc3onc(C)c23)c(OC)c1, the Potency is reported as inconclusive: 9.68 µM [cytotoxic, full curve, poor fit].
In the case of Cc1ccc(C)c(NC(=O)Cn2c(=O)n(Cc3ccco3)c(=O)c3oc4ccccc4c32)c1, the Potency is reported as “inactive”.
With CCCn1c2ccccc2c2cnn(CC(=O)NCC3CCN(Cc4ccc(C)cc4)CC3)c(=O)c21 the Potency was inconclusive: 43.2 µM [cytotoxic, single point].
With CCCCCn1c(=N)n(CC(O)COc2cccc(C)c2)c2ccccc21 (stereo not given) the Potency was active: 21.7 µM.
In the case of CC1CCN(S(=O)(=O)c2ccc3ncn(CC(=O)Nc4ccccc4C(F)(F)F)c(=O)c3c2)CC1, the Potency is reported as “inactive”.
With O=C(NCc1ccc(Cl)cc1)C(=O)Nc1cccc(Br)c1 the Potency was inconclusive: 0.385 µM [rising, full curve, poor fit].
With COc1ccc(Cl)cc1NC(=O)Cn1c(=O)n(-c2ccc(C)cc2)c(=O)c2ccc(C(=O)NCc3ccccc3Cl)cc21 the Potency was active: 30.6 µM.
In the case of Cc1oc(-c2ccc(Cl)cc2)nc1CN1CCCC(C(=O)NCCc2ccccc2)C1 (stereo not given), the activity change, negative = viability loss is reported as inconclusive: -33.2% [cytotoxic].
For Cc1ccc(CNC(=O)Cn2c(=O)n(-c3cccc(Cl)c3)c(=O)c3sc4ccccc4c32)cc1, the Potency was inconclusive: 0.0097 µM [rising, full curve, poor fit].
For Cc1ncc(CO)c2c1Oc1nc(-c3ccccc3)nc(SCC(=O)N3CCCCC3)c1C2, the Potency was inconclusive: 0.0122 µM [rising, full curve, poor fit].
For Clc1cccc(-c2noc3ncnc(NC4CCCCC4)c23)c1, the Potency was “inactive”.
For CCOc1ccccc1Nc1sc(C(=O)c2ccccc2)c(N)c1S(=O)(=O)c1ccc(C)cc1, the Potency was “inactive”.
With COc1ccc(CC(=O)Nc2sc3c(c2C(=O)Nc2cccc(C)c2)CCCCC3)cc1 the Potency was inconclusive: 43.2 µM [cytotoxic, single point].
In the case of CCc1ccc(N2C(=O)CSC23C(=O)N(Cc2cccc(OC)c2)c2ccccc23)cc1 (stereo not given), the Potency is reported as “inactive”.
In the case of COc1ccc(Nc2nc3c(S(=O)(=O)c4ccccc4)nnn3c3ccc(Cl)cc23)cc1, the Potency is reported as inconclusive: 43.2 µM [cytotoxic, single point].
With COc1ccc(C)cc1NC(=O)c1nnn(CC(=O)Nc2c(C)cccc2C)c1N the Potency was inconclusive: 0.432 µM [rising, full curve, poor fit].
With COc1cc2ccccc2cc1C(=O)Nc1ccc2oc(-c3cccc(Cl)c3Cl)nc2c1 the Potency was active: 27.3 µM.
With COCCCn1c(=N)c(C(=O)NCc2ccco2)cc2c(=O)n3cccc(C)c3nc21 the Potency was inconclusive: 17.2 µM [rising, partial curve].
